Among the data in patent US7410639 (VEGENICS, dated 2008) are binding values, retold here.

The chains behind the UniProt entries cited, without tags or fusion partners. Where a name states a change or a piece, a line headed by the entry shows the natural chain unless it says otherwise.
UniProt P35918: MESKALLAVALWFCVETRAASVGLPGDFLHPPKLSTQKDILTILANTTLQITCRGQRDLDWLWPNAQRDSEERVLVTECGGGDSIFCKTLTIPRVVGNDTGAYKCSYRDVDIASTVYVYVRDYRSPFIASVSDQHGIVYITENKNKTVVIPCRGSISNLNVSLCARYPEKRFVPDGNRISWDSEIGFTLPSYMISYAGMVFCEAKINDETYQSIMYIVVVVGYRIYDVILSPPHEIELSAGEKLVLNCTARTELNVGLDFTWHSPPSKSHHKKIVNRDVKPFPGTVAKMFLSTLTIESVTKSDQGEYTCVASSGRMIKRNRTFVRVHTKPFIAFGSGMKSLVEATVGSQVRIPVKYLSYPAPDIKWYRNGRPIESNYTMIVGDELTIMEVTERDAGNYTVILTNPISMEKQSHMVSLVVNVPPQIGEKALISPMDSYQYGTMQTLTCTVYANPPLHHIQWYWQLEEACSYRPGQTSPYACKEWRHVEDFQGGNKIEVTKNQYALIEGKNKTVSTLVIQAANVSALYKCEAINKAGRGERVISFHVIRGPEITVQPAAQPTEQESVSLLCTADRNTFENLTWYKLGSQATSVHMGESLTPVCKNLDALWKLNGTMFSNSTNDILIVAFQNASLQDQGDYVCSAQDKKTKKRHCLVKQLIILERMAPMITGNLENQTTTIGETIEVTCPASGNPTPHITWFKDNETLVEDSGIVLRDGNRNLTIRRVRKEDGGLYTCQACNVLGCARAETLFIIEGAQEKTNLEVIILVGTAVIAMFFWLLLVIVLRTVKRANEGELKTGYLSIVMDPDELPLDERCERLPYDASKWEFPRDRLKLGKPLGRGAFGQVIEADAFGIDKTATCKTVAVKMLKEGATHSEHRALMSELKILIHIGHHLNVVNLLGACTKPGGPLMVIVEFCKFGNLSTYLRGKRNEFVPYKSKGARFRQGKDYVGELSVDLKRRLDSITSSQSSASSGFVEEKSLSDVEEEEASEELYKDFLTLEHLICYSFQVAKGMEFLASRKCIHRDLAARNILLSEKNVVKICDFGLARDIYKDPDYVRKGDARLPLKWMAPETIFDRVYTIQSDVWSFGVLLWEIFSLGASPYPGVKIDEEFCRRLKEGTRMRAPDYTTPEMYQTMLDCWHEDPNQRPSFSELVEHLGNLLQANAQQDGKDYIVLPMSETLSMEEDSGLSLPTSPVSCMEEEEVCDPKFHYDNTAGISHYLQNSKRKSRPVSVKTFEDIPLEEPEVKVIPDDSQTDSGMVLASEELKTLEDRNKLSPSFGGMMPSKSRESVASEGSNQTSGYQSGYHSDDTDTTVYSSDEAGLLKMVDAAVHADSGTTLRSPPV
UniProt P14753: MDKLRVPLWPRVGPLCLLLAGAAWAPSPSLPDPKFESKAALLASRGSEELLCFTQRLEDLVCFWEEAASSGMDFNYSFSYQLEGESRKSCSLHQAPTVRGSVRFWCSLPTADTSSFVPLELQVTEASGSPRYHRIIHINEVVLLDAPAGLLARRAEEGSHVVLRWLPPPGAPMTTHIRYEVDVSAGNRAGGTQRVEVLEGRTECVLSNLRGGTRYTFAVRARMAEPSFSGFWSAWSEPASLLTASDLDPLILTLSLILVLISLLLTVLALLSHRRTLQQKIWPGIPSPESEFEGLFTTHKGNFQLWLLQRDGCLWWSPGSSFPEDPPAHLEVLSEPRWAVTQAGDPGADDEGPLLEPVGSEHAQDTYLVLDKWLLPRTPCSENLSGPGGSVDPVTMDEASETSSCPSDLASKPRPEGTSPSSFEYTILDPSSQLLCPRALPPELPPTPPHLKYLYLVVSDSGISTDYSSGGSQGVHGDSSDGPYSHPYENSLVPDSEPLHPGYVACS
UniProt O43915: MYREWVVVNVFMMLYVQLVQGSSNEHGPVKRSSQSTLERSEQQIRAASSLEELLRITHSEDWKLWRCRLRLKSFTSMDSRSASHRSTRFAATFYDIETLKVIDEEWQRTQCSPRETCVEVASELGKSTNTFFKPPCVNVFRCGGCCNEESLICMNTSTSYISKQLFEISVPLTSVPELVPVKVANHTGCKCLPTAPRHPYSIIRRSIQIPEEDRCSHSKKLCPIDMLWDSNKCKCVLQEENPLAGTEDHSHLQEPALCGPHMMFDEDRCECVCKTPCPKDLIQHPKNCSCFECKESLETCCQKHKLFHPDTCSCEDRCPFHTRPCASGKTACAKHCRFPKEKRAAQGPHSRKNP

These are yes or no findings as the source states them, for the method shown. Some binding calls cover weakened binding; strength is not graded here.

This experiment deals with VEGFR2-EpoR chimeric receptor (mouse VEGFR2 extracellular domain with mouse EpoR transmembrane and cytoplasmic domains) on Ba/F3-NYK-EpoR cells (mouse) (UniProt P35918+P14753). Briefly: Ba/F3 VEGFR2-EpoR survival bioassay (binding inferred from cell rescue).

For “human VEGF-D (from UniProt O43915 22-354) (ligand)”, the binding result was “binds”.
